Data reported in the supplement of paper PMC7666118.
Some of the results follow.

Chains of the proteins cited; added tags and fusions are not shown. Lines headed by an entry give the natural chain unless they say otherwise; changes in a name come on top.
UniProt Q8N543: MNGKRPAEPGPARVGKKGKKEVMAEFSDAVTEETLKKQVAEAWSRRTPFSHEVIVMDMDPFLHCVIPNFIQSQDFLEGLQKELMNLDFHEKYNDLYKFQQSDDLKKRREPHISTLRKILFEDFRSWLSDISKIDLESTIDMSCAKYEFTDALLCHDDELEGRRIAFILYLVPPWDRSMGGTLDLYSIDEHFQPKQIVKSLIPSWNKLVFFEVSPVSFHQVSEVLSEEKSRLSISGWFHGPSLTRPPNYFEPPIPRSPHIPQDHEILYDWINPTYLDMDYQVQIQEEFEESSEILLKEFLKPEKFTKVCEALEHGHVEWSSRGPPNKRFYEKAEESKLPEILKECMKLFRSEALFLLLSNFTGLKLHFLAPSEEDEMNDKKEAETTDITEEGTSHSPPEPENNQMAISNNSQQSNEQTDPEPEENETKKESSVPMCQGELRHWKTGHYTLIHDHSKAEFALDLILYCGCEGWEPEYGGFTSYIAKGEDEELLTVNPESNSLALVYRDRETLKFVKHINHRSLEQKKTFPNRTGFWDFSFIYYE
UniProt Q9H0N5: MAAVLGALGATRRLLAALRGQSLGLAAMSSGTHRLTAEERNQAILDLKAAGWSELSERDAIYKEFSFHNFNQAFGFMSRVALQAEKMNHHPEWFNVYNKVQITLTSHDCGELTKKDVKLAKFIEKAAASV
UniProt Q86YH6: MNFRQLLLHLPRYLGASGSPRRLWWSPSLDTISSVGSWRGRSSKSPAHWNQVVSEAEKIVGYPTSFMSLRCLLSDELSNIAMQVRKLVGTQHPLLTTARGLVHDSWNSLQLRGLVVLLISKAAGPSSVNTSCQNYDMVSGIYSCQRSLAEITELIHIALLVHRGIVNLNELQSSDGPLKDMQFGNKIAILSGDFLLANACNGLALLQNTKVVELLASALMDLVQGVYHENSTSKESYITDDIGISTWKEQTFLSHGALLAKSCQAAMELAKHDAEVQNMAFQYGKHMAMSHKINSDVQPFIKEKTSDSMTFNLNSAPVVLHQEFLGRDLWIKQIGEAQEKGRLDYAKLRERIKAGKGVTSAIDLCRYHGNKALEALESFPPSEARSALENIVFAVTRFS
UniProt Q8TB37: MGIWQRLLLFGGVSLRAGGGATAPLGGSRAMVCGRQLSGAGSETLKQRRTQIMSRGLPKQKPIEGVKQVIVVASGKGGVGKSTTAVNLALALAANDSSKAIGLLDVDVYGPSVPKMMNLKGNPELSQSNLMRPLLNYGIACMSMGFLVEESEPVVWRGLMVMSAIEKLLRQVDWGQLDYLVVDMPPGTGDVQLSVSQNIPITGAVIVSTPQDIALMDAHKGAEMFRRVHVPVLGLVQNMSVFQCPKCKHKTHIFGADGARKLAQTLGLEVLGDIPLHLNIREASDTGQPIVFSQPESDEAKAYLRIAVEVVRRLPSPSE
UniProt Q8N8D1: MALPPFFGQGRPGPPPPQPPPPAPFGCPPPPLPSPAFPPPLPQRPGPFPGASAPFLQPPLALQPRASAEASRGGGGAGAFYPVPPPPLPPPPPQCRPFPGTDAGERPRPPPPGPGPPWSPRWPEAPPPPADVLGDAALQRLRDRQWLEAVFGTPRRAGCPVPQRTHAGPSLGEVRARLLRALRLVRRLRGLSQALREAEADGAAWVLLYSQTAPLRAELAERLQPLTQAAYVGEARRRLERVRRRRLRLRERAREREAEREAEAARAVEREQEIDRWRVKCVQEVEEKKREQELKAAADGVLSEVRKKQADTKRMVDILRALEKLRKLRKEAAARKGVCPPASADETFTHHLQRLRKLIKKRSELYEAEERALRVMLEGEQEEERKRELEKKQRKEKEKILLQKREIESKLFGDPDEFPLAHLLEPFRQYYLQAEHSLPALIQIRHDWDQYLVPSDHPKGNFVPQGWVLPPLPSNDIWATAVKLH
UniProt Q8WV07: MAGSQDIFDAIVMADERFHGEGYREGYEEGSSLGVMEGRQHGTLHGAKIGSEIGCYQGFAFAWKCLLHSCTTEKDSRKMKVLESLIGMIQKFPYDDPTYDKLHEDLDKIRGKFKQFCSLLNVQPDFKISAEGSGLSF
UniProt Q8TE04: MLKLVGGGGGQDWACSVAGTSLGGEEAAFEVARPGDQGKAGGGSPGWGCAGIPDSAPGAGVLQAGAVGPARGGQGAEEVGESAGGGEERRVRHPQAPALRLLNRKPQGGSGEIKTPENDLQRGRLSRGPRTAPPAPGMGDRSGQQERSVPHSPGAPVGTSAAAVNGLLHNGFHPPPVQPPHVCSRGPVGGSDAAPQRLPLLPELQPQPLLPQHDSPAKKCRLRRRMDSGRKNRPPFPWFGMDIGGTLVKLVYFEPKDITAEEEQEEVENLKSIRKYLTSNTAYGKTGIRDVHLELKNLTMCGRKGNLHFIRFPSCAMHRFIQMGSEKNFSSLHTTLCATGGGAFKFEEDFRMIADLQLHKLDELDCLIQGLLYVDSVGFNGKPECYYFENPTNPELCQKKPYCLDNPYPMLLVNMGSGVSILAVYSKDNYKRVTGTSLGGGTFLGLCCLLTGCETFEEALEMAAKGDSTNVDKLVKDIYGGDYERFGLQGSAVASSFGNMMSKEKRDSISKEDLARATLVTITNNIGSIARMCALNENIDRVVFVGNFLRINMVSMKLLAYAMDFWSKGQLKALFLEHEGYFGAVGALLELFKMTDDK
UniProt Q01813: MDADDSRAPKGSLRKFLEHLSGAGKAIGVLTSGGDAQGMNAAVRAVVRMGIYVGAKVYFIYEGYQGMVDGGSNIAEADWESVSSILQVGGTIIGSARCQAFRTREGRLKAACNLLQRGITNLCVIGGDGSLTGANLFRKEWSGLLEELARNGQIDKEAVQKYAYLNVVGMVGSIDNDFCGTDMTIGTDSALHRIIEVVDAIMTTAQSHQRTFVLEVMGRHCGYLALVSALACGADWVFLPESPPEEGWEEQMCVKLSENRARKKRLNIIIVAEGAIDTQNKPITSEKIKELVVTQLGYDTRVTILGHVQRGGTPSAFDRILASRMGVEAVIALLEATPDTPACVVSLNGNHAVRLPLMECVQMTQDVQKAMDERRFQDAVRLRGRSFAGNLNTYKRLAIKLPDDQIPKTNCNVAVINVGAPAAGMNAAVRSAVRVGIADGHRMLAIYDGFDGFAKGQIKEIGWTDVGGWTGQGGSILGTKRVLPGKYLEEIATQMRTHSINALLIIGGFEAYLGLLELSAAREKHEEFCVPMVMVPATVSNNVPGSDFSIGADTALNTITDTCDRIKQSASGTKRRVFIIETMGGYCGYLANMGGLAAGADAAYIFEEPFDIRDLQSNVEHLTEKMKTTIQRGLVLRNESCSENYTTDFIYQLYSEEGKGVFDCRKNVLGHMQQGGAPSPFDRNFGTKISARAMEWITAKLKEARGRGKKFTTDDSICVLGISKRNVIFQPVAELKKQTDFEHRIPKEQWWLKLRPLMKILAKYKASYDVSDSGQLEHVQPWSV
UniProt Q9BW91: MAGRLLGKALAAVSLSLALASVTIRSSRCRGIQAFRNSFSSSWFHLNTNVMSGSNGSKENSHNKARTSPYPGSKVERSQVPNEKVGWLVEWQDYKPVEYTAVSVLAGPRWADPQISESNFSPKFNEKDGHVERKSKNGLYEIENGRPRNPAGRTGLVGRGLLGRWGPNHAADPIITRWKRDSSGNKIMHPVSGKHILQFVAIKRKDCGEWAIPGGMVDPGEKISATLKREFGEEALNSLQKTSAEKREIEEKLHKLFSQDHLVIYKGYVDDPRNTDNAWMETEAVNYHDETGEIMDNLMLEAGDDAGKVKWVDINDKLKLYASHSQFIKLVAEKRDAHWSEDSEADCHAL
UniProt Q96AQ6: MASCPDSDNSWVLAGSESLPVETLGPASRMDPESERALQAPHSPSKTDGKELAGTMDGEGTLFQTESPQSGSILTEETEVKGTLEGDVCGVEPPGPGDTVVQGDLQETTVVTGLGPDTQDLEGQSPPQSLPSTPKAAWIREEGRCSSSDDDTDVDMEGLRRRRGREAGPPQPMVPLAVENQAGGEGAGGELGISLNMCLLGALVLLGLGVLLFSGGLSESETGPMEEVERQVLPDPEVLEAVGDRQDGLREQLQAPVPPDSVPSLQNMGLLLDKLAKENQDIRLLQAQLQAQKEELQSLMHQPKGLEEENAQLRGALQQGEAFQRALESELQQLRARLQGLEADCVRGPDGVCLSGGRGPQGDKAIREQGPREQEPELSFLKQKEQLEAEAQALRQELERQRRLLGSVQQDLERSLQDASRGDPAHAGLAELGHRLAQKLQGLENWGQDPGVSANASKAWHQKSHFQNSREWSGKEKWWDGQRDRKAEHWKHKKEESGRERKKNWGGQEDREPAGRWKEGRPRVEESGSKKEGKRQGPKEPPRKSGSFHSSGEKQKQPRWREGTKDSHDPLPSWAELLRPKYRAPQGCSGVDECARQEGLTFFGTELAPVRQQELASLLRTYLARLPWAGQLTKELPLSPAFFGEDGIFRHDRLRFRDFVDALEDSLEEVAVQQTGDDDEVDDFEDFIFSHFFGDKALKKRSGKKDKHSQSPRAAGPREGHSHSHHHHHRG

Compound: COc1ccc(Cn2ccc3ccc(C(=O)NO)cc32)cc1
Test: dose-dependent thermal stabilisation call (2D-TPP, DLPTP, 10% FDR) (binary (1 = stabilised)); higher = stabilised by the compound
Settings: system: HL-60 intact cells; concentration range 0.04-10 µM

Target | dose-dependent thermal stabilisation call
OGFOD1 (UniProt Q8N543) | inactive: 0
PCBD2 (UniProt Q9H0N5) | inactive: 0
PDSS2 (UniProt Q86YH6) | inactive: 0
NUBPL (UniProt Q8TB37) | inactive: 0
PDCD7 (UniProt Q8N8D1) | inactive: 0
P76 | inactive: 0
ORAOV1 (UniProt Q8WV07) | inactive: 0
PANK1 (UniProt Q8TE04) | inactive: 0
PFKP (UniProt Q01813) | inactive: 0
NUDT9 (UniProt Q9BW91) | inactive: 0
PBXIP1 (UniProt Q96AQ6) | inactive: 0
